38 targets from the supplement of paper PMC7666118 can be followed below.

The chains behind the UniProt entries cited, without tags or fusion partners. Where a name states a change or a piece, a line headed by the entry shows the natural chain unless it says otherwise.
UniProt Q9C0C9: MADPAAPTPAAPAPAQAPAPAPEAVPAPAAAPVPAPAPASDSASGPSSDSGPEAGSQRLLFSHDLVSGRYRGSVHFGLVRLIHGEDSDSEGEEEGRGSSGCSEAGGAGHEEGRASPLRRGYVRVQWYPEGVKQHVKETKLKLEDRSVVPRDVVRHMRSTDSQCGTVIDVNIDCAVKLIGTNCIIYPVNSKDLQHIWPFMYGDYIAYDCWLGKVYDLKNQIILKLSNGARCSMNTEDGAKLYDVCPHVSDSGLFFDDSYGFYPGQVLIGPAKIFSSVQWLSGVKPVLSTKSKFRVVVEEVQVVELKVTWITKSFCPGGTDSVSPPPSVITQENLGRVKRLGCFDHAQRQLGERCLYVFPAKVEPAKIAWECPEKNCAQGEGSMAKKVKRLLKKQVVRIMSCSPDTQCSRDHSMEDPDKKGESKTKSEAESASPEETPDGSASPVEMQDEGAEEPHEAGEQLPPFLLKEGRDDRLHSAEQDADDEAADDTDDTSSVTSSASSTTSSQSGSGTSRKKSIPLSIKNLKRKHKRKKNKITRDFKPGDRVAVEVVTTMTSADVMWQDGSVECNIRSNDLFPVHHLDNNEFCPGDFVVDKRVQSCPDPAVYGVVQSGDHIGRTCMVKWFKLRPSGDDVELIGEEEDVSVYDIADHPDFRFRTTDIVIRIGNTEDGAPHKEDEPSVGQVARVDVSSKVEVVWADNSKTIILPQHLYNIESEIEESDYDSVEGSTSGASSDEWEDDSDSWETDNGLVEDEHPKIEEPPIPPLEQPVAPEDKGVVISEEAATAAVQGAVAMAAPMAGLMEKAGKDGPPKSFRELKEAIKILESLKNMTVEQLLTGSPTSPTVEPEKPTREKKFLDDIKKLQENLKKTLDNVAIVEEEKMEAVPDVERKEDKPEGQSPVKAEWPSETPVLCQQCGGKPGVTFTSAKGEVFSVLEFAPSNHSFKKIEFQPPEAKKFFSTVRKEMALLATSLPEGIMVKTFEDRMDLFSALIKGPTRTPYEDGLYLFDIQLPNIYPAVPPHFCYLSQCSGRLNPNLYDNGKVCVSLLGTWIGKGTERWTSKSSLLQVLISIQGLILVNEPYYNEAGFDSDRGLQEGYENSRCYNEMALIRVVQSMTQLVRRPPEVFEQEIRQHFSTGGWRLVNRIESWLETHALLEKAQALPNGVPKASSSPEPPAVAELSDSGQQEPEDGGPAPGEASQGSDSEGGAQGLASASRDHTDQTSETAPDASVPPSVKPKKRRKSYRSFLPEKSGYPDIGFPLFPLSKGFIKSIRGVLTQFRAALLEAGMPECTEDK
UniProt Q7Z7E8: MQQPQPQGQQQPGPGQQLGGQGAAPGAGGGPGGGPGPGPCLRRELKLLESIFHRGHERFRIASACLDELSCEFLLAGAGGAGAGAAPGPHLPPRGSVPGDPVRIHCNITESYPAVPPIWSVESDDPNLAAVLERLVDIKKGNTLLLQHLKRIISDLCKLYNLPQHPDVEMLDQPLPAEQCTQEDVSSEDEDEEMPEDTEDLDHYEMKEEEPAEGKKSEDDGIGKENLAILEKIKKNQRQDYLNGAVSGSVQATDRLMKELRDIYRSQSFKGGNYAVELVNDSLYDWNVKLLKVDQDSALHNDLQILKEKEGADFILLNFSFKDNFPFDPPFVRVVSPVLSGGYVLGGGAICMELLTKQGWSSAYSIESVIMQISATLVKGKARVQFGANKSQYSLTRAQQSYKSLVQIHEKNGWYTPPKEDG
UniProt Q9H9J4: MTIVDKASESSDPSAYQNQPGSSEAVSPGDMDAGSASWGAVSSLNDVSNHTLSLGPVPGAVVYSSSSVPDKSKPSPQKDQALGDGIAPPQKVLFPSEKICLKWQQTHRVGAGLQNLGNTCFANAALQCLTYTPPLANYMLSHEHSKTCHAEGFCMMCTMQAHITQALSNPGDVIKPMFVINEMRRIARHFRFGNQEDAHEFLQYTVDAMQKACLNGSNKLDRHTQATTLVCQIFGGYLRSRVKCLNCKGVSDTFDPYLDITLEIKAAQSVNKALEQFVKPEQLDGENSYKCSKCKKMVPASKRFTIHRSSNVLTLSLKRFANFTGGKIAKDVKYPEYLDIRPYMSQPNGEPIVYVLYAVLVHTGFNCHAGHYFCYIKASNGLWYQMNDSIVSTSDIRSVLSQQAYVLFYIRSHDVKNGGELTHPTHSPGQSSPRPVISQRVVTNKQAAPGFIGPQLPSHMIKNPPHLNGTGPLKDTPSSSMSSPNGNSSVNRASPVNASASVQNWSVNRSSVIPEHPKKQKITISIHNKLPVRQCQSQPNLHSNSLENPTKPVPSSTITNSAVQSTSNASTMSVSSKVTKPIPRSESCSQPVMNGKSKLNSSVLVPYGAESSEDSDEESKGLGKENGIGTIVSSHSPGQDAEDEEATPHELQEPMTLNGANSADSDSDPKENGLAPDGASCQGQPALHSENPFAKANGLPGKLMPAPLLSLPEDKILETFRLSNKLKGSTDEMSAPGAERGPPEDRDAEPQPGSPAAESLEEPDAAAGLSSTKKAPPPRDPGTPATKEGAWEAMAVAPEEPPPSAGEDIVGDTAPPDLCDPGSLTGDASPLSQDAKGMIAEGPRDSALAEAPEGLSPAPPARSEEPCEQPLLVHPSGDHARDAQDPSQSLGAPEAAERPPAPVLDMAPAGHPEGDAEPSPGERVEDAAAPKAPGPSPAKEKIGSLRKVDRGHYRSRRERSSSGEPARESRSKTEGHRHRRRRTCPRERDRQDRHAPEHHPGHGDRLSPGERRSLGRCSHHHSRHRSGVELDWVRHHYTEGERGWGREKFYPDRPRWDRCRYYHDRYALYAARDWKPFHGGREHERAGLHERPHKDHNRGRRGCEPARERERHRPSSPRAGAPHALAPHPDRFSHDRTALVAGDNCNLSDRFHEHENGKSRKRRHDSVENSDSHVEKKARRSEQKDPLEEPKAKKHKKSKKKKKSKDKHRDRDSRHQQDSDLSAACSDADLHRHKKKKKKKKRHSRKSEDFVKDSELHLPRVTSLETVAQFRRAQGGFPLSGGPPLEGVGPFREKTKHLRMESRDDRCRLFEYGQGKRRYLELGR
UniProt O14949: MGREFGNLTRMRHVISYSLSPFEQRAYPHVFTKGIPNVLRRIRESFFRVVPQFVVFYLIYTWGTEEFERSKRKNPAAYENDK
UniProt Q9Y296, whole entry: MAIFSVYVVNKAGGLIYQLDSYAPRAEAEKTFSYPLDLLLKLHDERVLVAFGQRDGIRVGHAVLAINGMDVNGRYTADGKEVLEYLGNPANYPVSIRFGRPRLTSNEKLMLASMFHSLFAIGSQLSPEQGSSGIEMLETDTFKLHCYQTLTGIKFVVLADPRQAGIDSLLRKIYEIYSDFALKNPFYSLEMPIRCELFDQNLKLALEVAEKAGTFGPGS
UniProt O14717: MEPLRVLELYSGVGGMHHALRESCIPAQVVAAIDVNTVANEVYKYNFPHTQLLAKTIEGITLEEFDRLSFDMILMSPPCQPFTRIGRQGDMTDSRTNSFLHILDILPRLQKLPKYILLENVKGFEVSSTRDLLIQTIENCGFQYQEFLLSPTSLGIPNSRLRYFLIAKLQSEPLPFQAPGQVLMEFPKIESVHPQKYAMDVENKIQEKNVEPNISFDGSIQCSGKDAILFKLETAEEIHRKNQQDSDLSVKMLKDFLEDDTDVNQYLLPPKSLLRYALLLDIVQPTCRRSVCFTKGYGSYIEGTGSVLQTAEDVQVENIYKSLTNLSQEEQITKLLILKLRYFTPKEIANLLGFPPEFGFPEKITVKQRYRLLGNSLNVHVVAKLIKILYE
UniProt Q9H3N1: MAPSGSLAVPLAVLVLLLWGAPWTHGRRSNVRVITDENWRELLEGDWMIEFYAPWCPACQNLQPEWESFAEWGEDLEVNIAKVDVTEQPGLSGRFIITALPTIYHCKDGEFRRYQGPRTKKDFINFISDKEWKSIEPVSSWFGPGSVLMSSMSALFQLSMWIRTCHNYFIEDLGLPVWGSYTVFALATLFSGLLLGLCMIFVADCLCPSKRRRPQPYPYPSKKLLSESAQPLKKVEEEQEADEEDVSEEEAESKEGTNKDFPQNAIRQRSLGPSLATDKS
UniProt Q9Y228: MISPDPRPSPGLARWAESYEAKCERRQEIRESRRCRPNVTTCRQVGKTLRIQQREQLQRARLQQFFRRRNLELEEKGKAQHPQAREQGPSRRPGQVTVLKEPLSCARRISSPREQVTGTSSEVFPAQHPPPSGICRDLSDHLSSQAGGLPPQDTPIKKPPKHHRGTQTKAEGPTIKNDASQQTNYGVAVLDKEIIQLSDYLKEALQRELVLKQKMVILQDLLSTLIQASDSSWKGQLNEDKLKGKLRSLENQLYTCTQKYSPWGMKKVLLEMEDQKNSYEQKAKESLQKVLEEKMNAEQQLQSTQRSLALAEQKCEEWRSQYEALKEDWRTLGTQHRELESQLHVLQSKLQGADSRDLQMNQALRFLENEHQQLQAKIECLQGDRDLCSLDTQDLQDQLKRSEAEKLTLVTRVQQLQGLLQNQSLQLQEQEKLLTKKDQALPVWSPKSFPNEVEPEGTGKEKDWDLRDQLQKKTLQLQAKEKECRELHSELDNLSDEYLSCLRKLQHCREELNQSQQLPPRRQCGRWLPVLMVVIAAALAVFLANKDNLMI
UniProt P68036, whole entry: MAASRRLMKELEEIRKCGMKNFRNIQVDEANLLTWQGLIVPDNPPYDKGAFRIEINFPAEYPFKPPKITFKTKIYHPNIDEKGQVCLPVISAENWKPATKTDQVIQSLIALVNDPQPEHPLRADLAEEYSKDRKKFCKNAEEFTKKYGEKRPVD
UniProt Q9Y4E8: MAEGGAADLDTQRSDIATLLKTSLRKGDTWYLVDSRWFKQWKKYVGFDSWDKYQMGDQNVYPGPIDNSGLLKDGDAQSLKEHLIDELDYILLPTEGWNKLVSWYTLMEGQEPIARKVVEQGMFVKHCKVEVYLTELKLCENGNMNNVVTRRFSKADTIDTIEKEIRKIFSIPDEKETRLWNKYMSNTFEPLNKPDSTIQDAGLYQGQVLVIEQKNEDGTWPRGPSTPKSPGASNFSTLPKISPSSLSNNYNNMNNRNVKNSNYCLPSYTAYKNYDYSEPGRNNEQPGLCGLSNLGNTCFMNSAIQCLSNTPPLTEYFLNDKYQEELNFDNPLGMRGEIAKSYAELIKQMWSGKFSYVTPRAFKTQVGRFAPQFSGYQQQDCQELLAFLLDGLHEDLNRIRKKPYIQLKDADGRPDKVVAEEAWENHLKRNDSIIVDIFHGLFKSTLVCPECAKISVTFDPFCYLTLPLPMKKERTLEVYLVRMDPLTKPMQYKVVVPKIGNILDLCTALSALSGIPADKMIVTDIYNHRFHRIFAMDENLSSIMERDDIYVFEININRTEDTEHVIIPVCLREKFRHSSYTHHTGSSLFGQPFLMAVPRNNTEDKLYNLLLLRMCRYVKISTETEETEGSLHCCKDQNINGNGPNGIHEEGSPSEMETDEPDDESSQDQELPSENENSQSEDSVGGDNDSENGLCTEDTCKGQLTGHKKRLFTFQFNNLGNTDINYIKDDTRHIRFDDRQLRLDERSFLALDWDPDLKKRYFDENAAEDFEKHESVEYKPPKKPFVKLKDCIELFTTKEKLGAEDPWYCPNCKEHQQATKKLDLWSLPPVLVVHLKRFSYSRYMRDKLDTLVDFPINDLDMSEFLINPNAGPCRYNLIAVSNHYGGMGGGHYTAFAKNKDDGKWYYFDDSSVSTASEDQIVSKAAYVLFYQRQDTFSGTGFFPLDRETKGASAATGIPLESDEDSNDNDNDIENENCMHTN
UniProt P54578: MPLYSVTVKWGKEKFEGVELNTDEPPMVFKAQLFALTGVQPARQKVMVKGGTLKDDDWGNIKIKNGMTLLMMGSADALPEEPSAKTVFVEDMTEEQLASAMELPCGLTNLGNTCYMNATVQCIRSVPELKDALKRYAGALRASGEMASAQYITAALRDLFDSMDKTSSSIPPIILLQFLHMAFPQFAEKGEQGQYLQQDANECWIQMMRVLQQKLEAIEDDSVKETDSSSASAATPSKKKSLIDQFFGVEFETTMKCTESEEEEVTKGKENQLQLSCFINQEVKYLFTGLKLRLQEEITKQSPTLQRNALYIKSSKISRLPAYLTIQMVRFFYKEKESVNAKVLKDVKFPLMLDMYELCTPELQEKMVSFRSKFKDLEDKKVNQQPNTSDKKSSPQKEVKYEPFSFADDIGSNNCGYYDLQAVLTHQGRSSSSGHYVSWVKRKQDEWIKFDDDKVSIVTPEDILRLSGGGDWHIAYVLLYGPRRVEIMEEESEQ
UniProt Q15629: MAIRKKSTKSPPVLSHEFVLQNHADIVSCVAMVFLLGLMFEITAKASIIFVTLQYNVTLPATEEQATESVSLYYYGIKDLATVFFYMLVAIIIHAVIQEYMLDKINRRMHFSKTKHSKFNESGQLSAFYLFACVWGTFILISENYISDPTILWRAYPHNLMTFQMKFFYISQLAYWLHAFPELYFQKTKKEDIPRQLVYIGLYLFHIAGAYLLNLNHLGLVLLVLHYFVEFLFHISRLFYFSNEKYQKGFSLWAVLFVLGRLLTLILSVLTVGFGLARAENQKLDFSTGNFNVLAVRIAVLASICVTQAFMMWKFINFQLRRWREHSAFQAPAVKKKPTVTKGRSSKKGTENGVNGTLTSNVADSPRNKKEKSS

Some of the results follow.

Compound in the assay: COc1ccc(Cn2ccc3ccc(C(=O)NO)cc32)cc1
Briefly: dose-dependent thermal stabilisation call (2D-TPP, DLPTP, 10% FDR) (binary (1 = stabilised)); higher = stabilised by the compound. The following applies: system: HL-60 intact cells; concentration range 0.04-10 µM.
Consider TRAFD1 (UniProt O14545), for which the “dose-dependent thermal stabilisation call” value is inactive: 0.

Regarding UBE3C (UniProt Q15386), the “dose-dependent thermal stabilisation call” value is inactive: 0.

For UBE2O (UniProt Q9C0C9), the “dose-dependent thermal stabilisation call” value was inactive: 0.

On to USP16 (UniProt Q9Y5T5), for which the “dose-dependent thermal stabilisation call” value is inactive: 0.

As to UBE2Q1 (UniProt Q7Z7E8), the “dose-dependent thermal stabilisation call” value was inactive: 0.

Take USP42 (UniProt Q9H9J4): the “dose-dependent thermal stabilisation call” value was inactive: 0.

Turning to UQCRQ (UniProt O14949), the “dose-dependent thermal stabilisation call” value is inactive: 0.

On to TRAPPC4 (UniProt Q9Y296), for which the “dose-dependent thermal stabilisation call” value was inactive: 0.

As for TRDMT1 (UniProt O14717), the “dose-dependent thermal stabilisation call” value was inactive: 0.

Consider TXNDC1 (UniProt Q9H3N1), for which the “dose-dependent thermal stabilisation call” value was inactive: 0.

Turning to TRIM11 (UniProt Q96F44), the “dose-dependent thermal stabilisation call” value was inactive: 0.

For UNK (UniProt Q9C0B0), the “dose-dependent thermal stabilisation call” value is inactive: 0.

For UBR2 (UniProt Q8IWV8), the “dose-dependent thermal stabilisation call” value was inactive: 0.

As to TRMU (UniProt O75648), the “dose-dependent thermal stabilisation call” value is inactive: 0.

Turning to TRIT1 (UniProt Q9H3H1), the “dose-dependent thermal stabilisation call” value is inactive: 0.

As to UBE2G2 (UniProt P60604), the “dose-dependent thermal stabilisation call” value is inactive: 0.

Turning to TRUB2 (UniProt O95900), the “dose-dependent thermal stabilisation call” value was inactive: 0.

Consider TRAF3IP3 (UniProt Q9Y228), for which the “dose-dependent thermal stabilisation call” value was inactive: 0.

Consider TXNL4B (UniProt Q9NX01), for which the “dose-dependent thermal stabilisation call” value is inactive: 0.

For the target UBE2G1 (UniProt P62253), the “dose-dependent thermal stabilisation call” value was inactive: 0.

Regarding TRIP11 (UniProt Q15643), the “dose-dependent thermal stabilisation call” value is inactive: 0.

As to TRIM65 (UniProt Q6PJ69), the “dose-dependent thermal stabilisation call” value was inactive: 0.

In the case of UBE2L3 (UniProt P68036), the “dose-dependent thermal stabilisation call” value is inactive: 0.

As for USP5 (UniProt P45974), the “dose-dependent thermal stabilisation call” value is inactive: 0.

In the case of UQCRC1 (UniProt P31930), the “dose-dependent thermal stabilisation call” value was inactive: 0.

In the case of TRIM32 (UniProt Q13049), the “dose-dependent thermal stabilisation call” value is inactive: 0.

Turning to USP15 (UniProt Q9Y4E8), the “dose-dependent thermal stabilisation call” value was inactive: 0.

Take UNC45A (UniProt Q9H3U1): the “dose-dependent thermal stabilisation call” value was inactive: 0.

As to TTC35 (UniProt Q15006), the “dose-dependent thermal stabilisation call” value was inactive: 0.

As to USP14 (UniProt P54578), the “dose-dependent thermal stabilisation call” value is inactive: 0.

Turning to USP20 (UniProt Q9Y2K6), the “dose-dependent thermal stabilisation call” value was inactive: 0.

On to TXNDC9 (UniProt O14530), for which the “dose-dependent thermal stabilisation call” value is inactive: 0.

Turning to TRAM1 (UniProt Q15629), the “dose-dependent thermal stabilisation call” value is inactive: 0.

As for TXNDC17 (UniProt Q9BRA2), the “dose-dependent thermal stabilisation call” value was inactive: 0.

Turning to USP30 (UniProt Q70CQ3), the “dose-dependent thermal stabilisation call” value was inactive: 0.

In the case of USP46 (UniProt P62068), the “dose-dependent thermal stabilisation call” value was inactive: 0.

Regarding TXNDC14 (UniProt Q9Y320), the “dose-dependent thermal stabilisation call” value was inactive: 0.

Turning to UBE2R2 (UniProt Q712K3), the “dose-dependent thermal stabilisation call” value was inactive: 0.
